No constants are given. Whether binding was seen depends on the method and setting.

The assay concerns the target GUS. Nature of the assay: reverse phage ELISA: plate coated with purified protein, phage supernatant, anti-M13-HRP, absorbance at 450 nm. (In general: An ELISA detects its analyte on a solid surface through an enzyme-linked reagent.)
As for MTFGTLPGGGS (peptide, not shown: large carriers) [phage clone displaying MTFGTLP], the binding result is reported as “no binding”.
The result for FTFGSLPGGGS (peptide, not shown: large carriers) [phage clone displaying FTFGSLP] reads “no binding”.
As to LAFGSLPGGGS (peptide, not shown: large carriers) [phage clone displaying LAFGSLP], the binding entry is listed as “no binding”.
The result for LSFGSLPGGGS (peptide, not shown: large carriers) [phage clone EIP2 (LSFGSLP displayed on phage)] reads “no binding”; that for FSFGSLPGGGS (peptide, not shown: large carriers) [phage clone displaying FSFGSLP], “no binding”; that for FSASSPAGGGS (peptide, not shown: large carriers) [phage clone displaying FSASSPA], “no binding”.
The result for LSFGTFPGGGS (peptide, not shown: large carriers) [phage clone displaying LSFGTFP] reads “no binding”; that for YTFGTLPGGGS (peptide, not shown: large carriers) [phage clone displaying YTFGTLP], “no binding”; that for LTFGSLPGGGS (peptide, not shown: large carriers) [phage clone displaying LTFGSLP], “no binding”.
The value for LRFGTLPGGGS (peptide, not shown: large carriers) [phage clone displaying LRFGTLP] was “no binding”; that for LPPYLFTGGGS (peptide, not shown: large carriers) [phage clone EIP1 (LPPYLFT displayed on phage)] was “no binding”.
Regarding LSFGSFPGGGS (peptide, not shown: large carriers) [phage clone displaying LSFGSFP], the binding entry is “no binding”.

For the origin of these results see patent publication US20180273595A1.
